Test results reported in patent publication US7816406B2, “Quinolone analogs” (Cylene Pharmaceuticals, Inc., priority 2004, dated 2010).
The name of at least one read-out is uncertain.

Test system: Quadruplex
Test: Quadruplex Binding Affinity (Example 10)

Row | Compound | Km [µM]
1 | O=C(NCCN1CCCC1)c1c(=O)c2cc(F)c(SCCc3cnccn3)cc2n2c1sc1ccccc12 [drawing 472] | 4.5
2 | CN1CCCC1CCNC(=O)c1c(=O)c2cc(F)c(SCCc3cnccn3)cc2n2c1sc1ccccc12 (centres unmarked) [drawing 471] | 5.5
